Results taken from paper doi:10.1101/2023.01.22.525054.
No constants are given. Whether binding was seen depends on the method and setting. In cells and extracts the contact can be indirect. Some binding calls cover weakened binding; strength is not graded here. Where a sequence is shown, tags or fusion partners need not be part of it.

Legend:
Assay in all cases: co-IP
[1] = target: T1, FLAG-FAM111B HFP mutant (Q430P, M1) (human) (UniProt Q6SJ93)
T1 sequence: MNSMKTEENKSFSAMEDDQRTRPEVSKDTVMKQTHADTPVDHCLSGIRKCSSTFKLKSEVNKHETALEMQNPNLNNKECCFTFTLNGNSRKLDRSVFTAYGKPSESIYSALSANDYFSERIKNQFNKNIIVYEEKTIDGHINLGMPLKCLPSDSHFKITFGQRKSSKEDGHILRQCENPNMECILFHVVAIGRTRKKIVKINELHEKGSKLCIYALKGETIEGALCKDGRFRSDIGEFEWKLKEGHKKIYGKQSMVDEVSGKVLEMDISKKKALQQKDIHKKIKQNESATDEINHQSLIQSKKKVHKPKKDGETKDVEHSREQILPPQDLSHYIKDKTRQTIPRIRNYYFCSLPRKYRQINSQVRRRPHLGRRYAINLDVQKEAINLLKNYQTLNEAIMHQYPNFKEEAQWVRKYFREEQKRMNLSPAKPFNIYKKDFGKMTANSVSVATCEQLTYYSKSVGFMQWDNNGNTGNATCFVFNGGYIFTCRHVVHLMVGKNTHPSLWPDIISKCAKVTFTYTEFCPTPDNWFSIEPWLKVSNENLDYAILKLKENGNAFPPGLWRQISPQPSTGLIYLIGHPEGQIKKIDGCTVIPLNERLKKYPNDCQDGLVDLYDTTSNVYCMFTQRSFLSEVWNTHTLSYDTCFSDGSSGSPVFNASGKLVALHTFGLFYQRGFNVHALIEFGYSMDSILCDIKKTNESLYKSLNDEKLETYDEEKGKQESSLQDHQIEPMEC

[2] = target: T2, FLAG-FAM111B protease dead (PD, H490A) (human) (UniProt Q6SJ93)
T2 sequence: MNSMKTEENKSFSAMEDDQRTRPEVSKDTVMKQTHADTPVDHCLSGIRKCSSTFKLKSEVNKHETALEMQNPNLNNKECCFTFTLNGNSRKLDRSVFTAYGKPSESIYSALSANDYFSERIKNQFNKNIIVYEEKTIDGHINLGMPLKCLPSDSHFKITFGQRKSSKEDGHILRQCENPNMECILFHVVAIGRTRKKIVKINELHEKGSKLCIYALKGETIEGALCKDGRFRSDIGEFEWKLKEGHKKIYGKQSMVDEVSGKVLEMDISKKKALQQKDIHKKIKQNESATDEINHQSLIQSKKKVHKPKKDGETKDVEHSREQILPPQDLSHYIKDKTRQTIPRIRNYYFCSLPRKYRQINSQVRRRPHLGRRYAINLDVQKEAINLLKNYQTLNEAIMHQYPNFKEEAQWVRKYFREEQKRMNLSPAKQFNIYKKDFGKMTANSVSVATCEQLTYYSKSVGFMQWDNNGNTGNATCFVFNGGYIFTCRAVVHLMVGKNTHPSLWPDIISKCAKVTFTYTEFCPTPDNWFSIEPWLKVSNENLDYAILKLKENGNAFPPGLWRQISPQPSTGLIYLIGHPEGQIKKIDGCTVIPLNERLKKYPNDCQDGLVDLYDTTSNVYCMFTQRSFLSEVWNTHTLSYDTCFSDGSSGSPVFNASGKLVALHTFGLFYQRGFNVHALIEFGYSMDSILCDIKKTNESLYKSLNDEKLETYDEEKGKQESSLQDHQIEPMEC

[3] = target: T3, FLAG-FAM111B wild-type (WT) (human) (UniProt Q6SJ93)
T3 sequence: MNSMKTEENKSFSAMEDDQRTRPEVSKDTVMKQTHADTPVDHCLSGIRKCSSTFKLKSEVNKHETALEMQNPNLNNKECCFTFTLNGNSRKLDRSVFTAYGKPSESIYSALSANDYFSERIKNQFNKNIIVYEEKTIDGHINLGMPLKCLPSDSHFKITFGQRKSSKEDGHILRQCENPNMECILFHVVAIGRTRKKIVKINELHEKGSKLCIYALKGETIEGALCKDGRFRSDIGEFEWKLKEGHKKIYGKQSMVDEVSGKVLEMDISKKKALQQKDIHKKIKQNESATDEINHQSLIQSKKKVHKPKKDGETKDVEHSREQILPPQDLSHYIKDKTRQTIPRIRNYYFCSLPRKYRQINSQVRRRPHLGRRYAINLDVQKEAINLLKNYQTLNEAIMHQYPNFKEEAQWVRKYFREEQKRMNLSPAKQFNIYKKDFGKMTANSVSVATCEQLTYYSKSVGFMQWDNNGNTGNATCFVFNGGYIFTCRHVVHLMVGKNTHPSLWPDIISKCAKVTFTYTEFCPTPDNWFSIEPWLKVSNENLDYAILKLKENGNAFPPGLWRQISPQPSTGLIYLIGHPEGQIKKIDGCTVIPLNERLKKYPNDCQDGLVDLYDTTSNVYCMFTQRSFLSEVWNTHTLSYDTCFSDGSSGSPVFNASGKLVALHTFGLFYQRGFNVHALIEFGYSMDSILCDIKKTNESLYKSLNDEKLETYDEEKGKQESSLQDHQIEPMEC

Measured: binding

B1: NUPL2 (protein, UniProt O15504 1-423)
chain: MAICQFFLQGRCRFGDRCWNEHPGARGAGGGRQQPQQQPSGNNRRGWNTTSQRYSNVIQPSSFSKSTPWGGSRDQEKPYFSSFDSGASTNRKEGFGLSENPFASLSPDEQKDEKKLLEGIVKDMEVWESSGQWMFSVYSPVKKKPNISGFTDISPEELRLEYHNFLTSNNLQSYLNSVQRLINQWRNRVNELKSLNISTKVALLSDVKDGVNQAAPAFGFGSSQAATFMSPGFPVNNSSSDNAQNFSFKTNSGFAAASSGSPAGFGSSPAFGAAASTSSGISTSAPAFGFGKPEVTSAASFSFKSPAASSFGSPGFSGLPASLATGPVRAPVAPAFGGGSSVAGFGSPGSHSHTAFSKPSSDTFGNSSISTSLSASSSIIATDNVLFTPRDKLTVEELEQFQSKKFTLGKIPLKPPPLELLNV
binds: all assays above
